Results are given in words; binding and its absence hold for the method and conditions named. Some entries that bind do so weakly or less than the wild type.
Columns and labels:
[1] = molecular target: rhesus CD40 on rhesus B cells (CD20+ cells of rhesus PBMCs) (rhesus) (UniProt F6SNI1); assay: flow cytometry on rhesus PBMCs, CD20+ gate (FIG. 2A)
[2] = molecular target: recombinantly expressed human CD40 (human) (UniProt P25942); assay: ELISA, CD40 adsorbed to the plate, goat anti-mouse IgG-HRP (FIG. 2B)
[3] = molecular target: recombinantly expressed rhesus CD40 (rhesus) (UniProt F6SNI1); assay: as above
[4] = molecular target: rhesus CD40 on rhesus B cells (CD20+ cells of rhesus PBMCs) (rhesus) (UniProt F6SNI1); assay: flow cytometry, rhesus PBMCs with fluorochrome-conjugated 2C10 and an anti-CD20 antibody
[5] = molecular target: recombinantly expressed rhesus CD40 (rhesus) (UniProt F6SNI1); assay: ELISA, recombinant rhesus CD40 adsorbed to the plate, varying concentrations of 2C10, goat anti-mouse IgG-HRP
[6] = molecular target: recombinantly expressed human CD40 (human) (UniProt P25942); assay: ELISA, recombinant human CD40 adsorbed to the plate, varying concentrations of 2C10, goat anti-mouse IgG-HRP

Sequences of proteins named here, by UniProt entry; tags and fusion partners are left off. A change or cut given only in a name is not applied to a line headed by its entry. A line that says so, or that is headed by a name, gives the form on record, which may keep a tag or linker. Residues count along the entry.
rhesus CD40 on rhesus B cells (CD20+ cells of rhesus PBMCs) (F6SNI1, form named): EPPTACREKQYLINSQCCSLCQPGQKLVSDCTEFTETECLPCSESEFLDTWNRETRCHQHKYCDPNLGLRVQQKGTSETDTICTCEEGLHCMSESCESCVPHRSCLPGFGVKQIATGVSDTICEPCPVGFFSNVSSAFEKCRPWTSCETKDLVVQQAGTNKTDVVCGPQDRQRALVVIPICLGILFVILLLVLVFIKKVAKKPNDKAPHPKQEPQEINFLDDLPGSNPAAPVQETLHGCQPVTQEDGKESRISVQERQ
recombinantly expressed rhesus CD40 (F6SNI1, form named): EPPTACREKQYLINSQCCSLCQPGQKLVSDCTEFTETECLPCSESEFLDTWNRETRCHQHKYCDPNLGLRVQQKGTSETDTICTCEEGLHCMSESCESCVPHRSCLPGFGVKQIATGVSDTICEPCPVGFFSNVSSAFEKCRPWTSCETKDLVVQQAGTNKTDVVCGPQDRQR
UniProt P25942, residues 21-193: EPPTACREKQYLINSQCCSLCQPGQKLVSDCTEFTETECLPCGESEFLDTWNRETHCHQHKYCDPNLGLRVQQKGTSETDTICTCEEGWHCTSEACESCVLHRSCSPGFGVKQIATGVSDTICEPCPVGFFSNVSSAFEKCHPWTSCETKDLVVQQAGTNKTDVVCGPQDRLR

Measured: binding

B1: anti-CD40 antibody 2C10 (antibody, mouse IgG1, V domains shown)
VH: QVQLQQSGAELAKPGASVKMSCKASGYTFTNYWMHWVKQRPGQGLEWIGYINPSNDYTKYNQKFKDKATLTADKSSNTAYMQLGSLTSEDSAVYYCARQGFPYWGQGTLVTVS
VL: QIVLTQSPAIMSASPGEKVTMTCSASSSVSYMHWYHQRSGTSPKRWIYDTSKLASGVPARFSGSGSGTSYSLTISSMEAEDAATYYCHQLSSDPFTFGSGTKLEIK
notes: also called 2C10 antibody; APC-conjugated 2C10
binds: [1] | [2] | [3] | [4] | [5] | [6]
